# Library screen at single concentrations

Values are the deposited “Percent Effect”, in %.
The controls that fix the scale are not given in the record; negative values are as filed.
Compounds were drawn at random from those tested, without regard to their results.
Two or more numbers in one place are separate tests of the same structure; such repeats can differ widely.

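Phenotypic screen: M. tuberculosis growth, cholesterol and DPPC medium, 4 days; the read-out is not stated. Concentration: 50 µM. The record gives no direction; compounds that gave an IC50 in retests scored well above the rest, so higher reads as more growth inhibition. About 69,000 compounds were tested under these conditions; 0.54% (about 370) showed 50% or more at least once.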

With CCOC(=O)N1CCC(Nc2cc(CC)nc3c(C)c(C)nn23)CC1 the screen gave -2.088%. Result for COCCN(C(=O)c1c[nH]c2ncccc12)C1CCCC1 was -21.42%. O=C(c1ccco1)N1CCC2(CCCN(c3ncc(F)cn3)C2)C1 (centres undefined) read 10.37%. Result for CCN(C(=O)c1ccc2nnc(C3CCN(CCOC)C3)n2c1)C(C)C.O=C(O)C(F)(F)F (centres undefined) was -2.685%.

Result for Cc1ccccc1Oc1ncccc1CNS(=O)(=O)N(C)C was 4.404% and 5.789%. With CC(=O)N1CCC(N2CC[C@H](c3nc4cc(C)ccc4o3)C2)CC1 the screen gave 14.6%. With CCCc1nnc(NC(C)c2ccc3c(c2)OCCO3)o1 (centres undefined) the screen gave -11.08%. With [H][C@@]12C[C@H](c3noc(C)n3)O[C@@]1([H])CCN(C(=O)c1cc(C)c(C)s1)C2 the screen gave 2.898%.

With [H][C@]12CCN(c3nc(CO)cs3)C[C@]1(COC)CC[C@@H](N1CCOCC1)C2 the screen gave 6.474%. Cc1cc(F)ccc1NC(=O)NCC(C)N1CCOCC1 (centres undefined) read -20.11%. With CCc1nc(NC(=O)NCCc2scnc2C)nn1C the screen gave -34.87%. For c1cn(CC2CC2)c(C2CCN(CCC3CCOC3)CC2)n1 (centres undefined) the result was -28.2%.

Result for CN1CC(=O)N(c2ccccc2)CC12CCN(C(=O)c1ccnnc1)C2.O=C(O)C(F)(F)F (centres undefined) was -14.1%. With Oc1cccc(CNCCC2CCCO2)c1 (centres undefined) the screen gave -9.395%. Result for CCc1ccccc1NC(=O)c1cccc(N(C)S(C)(=O)=O)c1C was 21.06% and -1.183%. For O=C(c1sccc1C1CC1)N1CCN(c2ncccn2)CC1 the result was 4.029%.

Cc1nnc(N2CCCC2)c(C(N)=O)c1C gave -0.08673%. With O=C(C1CC1)N(CCc1ccccc1)C1CCOC1 (centres undefined) the screen gave -4.544%. O=C1CC[C@H](C(=O)Nc2cnn(-c3ccccc3Br)c2)N1 read 16.78%. With COc1ccc(NC(=O)NCC(C)N2CCc3ccccc32)cc1 (centres undefined) the screen gave -18.92%.

Result for CS(=O)(=O)N1CCC(Nc2ccc(C#N)c(C(F)(F)F)c2)CC1 was 7.071%. For COc1nn(C)c2c1CCCN(S(=O)(=O)c1cccc(C)c1)C2 the result was -2.389% and -1.495%. For O=c1oc2ccccc2n1CCCN1CCCC1c1ccc(O)cc1 (centres undefined) the result was -10.97%. COc1ccc(OC)c(C(C)NC(=O)c2nn(C)c(C)c2Br)c1 (centres undefined) read -21.84%.

With CC(c1ccncn1)N(C)Cc1cc2cc3c(cc2[nH]c1=O)OCO3 (centres undefined) the screen gave -14.25%. COc1c(C(=O)NCC(C)Sc2ccccc2)c(C)nn1C (centres undefined) read 1.355%. CCN(C(=O)c1ccccc1I)C1CC(=O)NC1=O (centres undefined) read -13.85%. Cc1csc2ncc(-c3ccnc(N4CCC[C@@H]4CO)n3)c(=O)n12 gave 5.334%.

Cc1nnc(N2CCNCC2)c(C(N)=O)c1C gave -1.784%. Cc1cc(C(=O)Nc2n[nH]c(C3CC3)n2)c2c(C)noc2n1 read -3.308%. O=C(O)C(F)(F)F.O=C(O)C(F)(F)F.[H][C@]12C[C@@H](C(=O)N(C)Cc3ccccn3)CO[C@@]1([H])CCN(C)C2 read -19.86%. CCOCCCn1c(NC(=O)c2ccc(C)nc2)nc2ccccc21 gave -30.54%.

CN1CCN(C(=O)Cc2csc(-c3ccsc3)n2)C(c2ccccc2)C1 (centres undefined) gave -4.481%. For OCCC1CN(c2ncnc3[nH]cnc23)CCN1Cc1ccccc1F (centres undefined) the result was 0.3292%. For c1coc(-c2nnc(CN3CCOC(Cn4cccn4)C3)o2)c1 (centres undefined) the result was 11.36%. CNC(=O)CN(C)C(=O)c1cc2ccccc2cc1OC read -0.2458%.

With [H][C@@]12CCN(Cc3ccc4c(c3)OCO4)C[C@]1([H])O[C@@H](C(=O)NC)C2 the screen gave -14.55%. CCn1cc(C(=O)NCc2csc(Br)c2)cn1 gave 9.141%. Result for O=C(c1cccnc1)C1CCCN(c2nnc(C3CC3)o2)C1 (centres undefined) was -16.51%. Result for CC1CC(=O)c2cnc3nc(N4CCOCC4)[nH]c(=O)c3c2C1 (centres undefined) was -12.27%.

For [H][C@@]12COC[C@]1(CNS(C)(=O)=O)CN(C(=O)Cc1ccccc1F)C2 the result was -0.886%. Result for O=C(Nc1nncs1)c1ccc(-n2cnnn2)cc1 was -3.813%. For O=S1(=O)[C@@H](c2ccccc2)[C@H](CO)CN1C1CC1 the result was 1.134%. Result for CC(C)N1CC(NC(=O)c2ccc(Cl)s2)CC1=O (centres undefined) was -3.142%.

Result for CC(C)c1[nH]c2ncccc2c1CN1CCN(S(=O)(=O)N(C)C)CC1 was -8.589%. CN(c1ncccc1CNS(=O)(=O)N1CCOCC1)C1CCCCC1 gave -13.7%. Cc1cnn(CC2CCCN2c2nn3cc(C)nc3s2)c1 (centres undefined) read -5.397%. CC(C)N(C)Cc1nnn2c1CN(Cc1cccnc1)CCC2.O=C(O)C(F)(F)F.O=C(O)C(F)(F)F.O=C(O)C(F)(F)F gave -8.323%.

Result for O=C(NCCN1CCCCCC1=O)Nc1cccnc1-n1cccn1 was -5.591%. With CN1CCc2[nH]nc(C(=O)N3CCC4(CN(C)C(=O)O4)C3)c2C1 (centres undefined) the screen gave -7.519%. Cc1ccc(CN2CCCC3(CCC(=O)N3)CC2)s1.O=C(O)C(F)(F)F (centres undefined) read 1.652%. CC(C)Cc1nc(CN2CCOC(Cn3cncn3)C2)no1 (centres undefined) gave 1.89%.

For CCN(CC)CC1CN(Cc2c(C)noc2C)Cc2nccn2C1 (centres undefined) the result was 2.539%. O=C(O)C(F)(F)F.O=C(O)C(F)(F)F.[H][C@@]12CN(CC)C[C@]1([H])[C@@H](OC)CCN2S(=O)(=O)c1cccnc1 gave 5.945% and -16.11%. CC(C)c1cc(NC(=O)CN2CCn3c(nnc3C3CC3)C2)on1 read 5.253%. Result for COc1cccc(CN2CCC(c3nn(CCN)c4nccnc34)C2)c1 (centres undefined) was 3.372%.

For CC(C)c1noc(CCC(=O)N2CCN(Cc3ccncc3)CC2)n1 the result was 2.213%. With CC(C)(C)CN1CCCC12CCN(S(=O)(=O)c1ccccc1)C2.O=C(O)C(F)(F)F (centres undefined) the screen gave -0.07902% and 9.54%. Result for O[C@H]1[C@H](NCCc2ccccn2)c2ccccc2C12CCNCC2 was -23.84%. O=C(NCc1nc(C2CCCCC2)no1)C1CC(=O)N(C2CC2)C1 (centres undefined) read -18.59%.

For reference, 7 entries once more:

- Cc1ccccc1Oc1ncccc1CNS(=O)(=O)N(C)C | 4.404% and 5.789%
- CCn1cc(C(=O)NCc2csc(Br)c2)cn1 | 9.141%
- CC(C)N(C)Cc1nnn2c1CN(Cc1cccnc1)CCC2.O=C(O)C(F)(F)F.O=C(O)C(F)(F)F.O=C(O)C(F)(F)F | -8.323%
- CCc1ccccc1NC(=O)c1cccc(N(C)S(C)(=O)=O)c1C | 21.06% and -1.183%
- O=c1oc2ccccc2n1CCCN1CCCC1c1ccc(O)cc1 (centres undefined) | -10.97%
- CN1CC(=O)N(c2ccccc2)CC12CCN(C(=O)c1ccnnc1)C2.O=C(O)C(F)(F)F (centres undefined) | -14.1%
- CS(=O)(=O)N1CCC(Nc2ccc(C#N)c(C(F)(F)F)c2)CC1 | 7.071%

Data taken from ChEMBL document CHEMBL3988442, “University of Dundee, Small-Polar-MMV Screening Library” (2021).